Article PMC7124466
These are yes or no findings as the source states them, for the method shown. Binding seen in cells or lysates may run through a third protein. Some binding calls cover weakened binding; strength is not graded here.

By UniProt entry, the sequences of proteins in these tests, tags left out. Residues count along the entry.
UniProt P53598, residues 25-329: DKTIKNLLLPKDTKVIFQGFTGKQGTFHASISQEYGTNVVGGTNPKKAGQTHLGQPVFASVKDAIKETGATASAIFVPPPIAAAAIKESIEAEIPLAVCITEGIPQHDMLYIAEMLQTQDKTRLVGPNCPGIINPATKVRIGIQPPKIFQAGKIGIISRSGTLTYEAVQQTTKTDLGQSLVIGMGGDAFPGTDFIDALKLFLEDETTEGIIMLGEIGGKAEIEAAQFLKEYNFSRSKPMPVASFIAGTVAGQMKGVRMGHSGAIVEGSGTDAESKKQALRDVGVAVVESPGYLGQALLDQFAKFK
UniProt Q00711, residues 29-640: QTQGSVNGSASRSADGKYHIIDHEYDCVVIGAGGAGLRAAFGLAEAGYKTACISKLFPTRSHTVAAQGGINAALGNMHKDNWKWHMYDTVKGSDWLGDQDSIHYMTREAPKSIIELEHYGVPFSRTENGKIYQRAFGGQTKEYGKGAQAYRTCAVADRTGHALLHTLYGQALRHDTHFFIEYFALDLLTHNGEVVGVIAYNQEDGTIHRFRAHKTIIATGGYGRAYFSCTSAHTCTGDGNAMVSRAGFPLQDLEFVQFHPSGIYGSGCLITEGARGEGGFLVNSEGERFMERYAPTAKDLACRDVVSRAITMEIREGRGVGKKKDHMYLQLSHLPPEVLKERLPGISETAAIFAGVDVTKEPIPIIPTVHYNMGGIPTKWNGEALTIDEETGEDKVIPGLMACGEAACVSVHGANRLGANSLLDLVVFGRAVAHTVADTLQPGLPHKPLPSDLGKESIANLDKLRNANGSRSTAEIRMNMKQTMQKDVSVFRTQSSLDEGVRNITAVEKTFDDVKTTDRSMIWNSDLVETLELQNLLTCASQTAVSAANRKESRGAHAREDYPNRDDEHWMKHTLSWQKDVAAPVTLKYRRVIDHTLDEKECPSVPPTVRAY

How the values were obtained:
Experiment in all cases: cross-linking; intact purified yeast mitochondria (5 mg/ml, isotonic buffer: 250 mM sucrose, 1 mM EDTA, 10 mM MOPS-KOH, pH 7.2) crosslinked in organello with 2 mM CBDPS-H8/D8, 21 °C 10 min then on ice 110 min; Lys-Lys inter-protein crosslinked peptides enriched (SCX, avidin) and identified by LC-MS/MS, FDR 2%
[1] = biological target: T1, PHB2 (yeast (endogenous in mitochondria of strain YPH499)) (UniProt P50085)
T1 sequence: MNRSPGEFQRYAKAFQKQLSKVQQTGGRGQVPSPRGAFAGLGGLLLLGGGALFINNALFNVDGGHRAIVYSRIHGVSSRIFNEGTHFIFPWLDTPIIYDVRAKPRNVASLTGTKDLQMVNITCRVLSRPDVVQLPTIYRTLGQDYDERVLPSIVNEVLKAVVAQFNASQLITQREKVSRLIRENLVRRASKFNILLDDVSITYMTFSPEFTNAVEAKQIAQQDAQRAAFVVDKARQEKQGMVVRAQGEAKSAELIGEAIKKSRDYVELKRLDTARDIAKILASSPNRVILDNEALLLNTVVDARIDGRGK

[2] = biological target: LSC1 (yeast (endogenous in mitochondria of strain YPH499)) (UniProt P53598)
[3] = biological target: SDH1 (yeast (endogenous in mitochondria of strain YPH499)) (UniProt Q00711)
[4] = biological target: T2, CBP3 (yeast (endogenous in mitochondria of strain YPH499)) (UniProt P21560)
T2 sequence: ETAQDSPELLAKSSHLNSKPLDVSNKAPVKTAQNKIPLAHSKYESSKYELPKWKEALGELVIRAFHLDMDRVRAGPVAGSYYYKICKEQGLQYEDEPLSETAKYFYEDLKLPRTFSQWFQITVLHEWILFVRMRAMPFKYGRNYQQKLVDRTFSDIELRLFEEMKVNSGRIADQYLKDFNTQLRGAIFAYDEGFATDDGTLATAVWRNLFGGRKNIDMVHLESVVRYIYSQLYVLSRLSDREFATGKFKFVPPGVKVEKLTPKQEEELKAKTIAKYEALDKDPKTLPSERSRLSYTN

[5] = biological target: T3, FMP16 (yeast (endogenous in mitochondria of strain YPH499)) (UniProt Q12497)
T3 sequence: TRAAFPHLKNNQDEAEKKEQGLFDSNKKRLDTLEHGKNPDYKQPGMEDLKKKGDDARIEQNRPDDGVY

[6] = biological target: T4, NDE1 (yeast (endogenous in mitochondria of strain YPH499)) (UniProt P40215)
T4 sequence: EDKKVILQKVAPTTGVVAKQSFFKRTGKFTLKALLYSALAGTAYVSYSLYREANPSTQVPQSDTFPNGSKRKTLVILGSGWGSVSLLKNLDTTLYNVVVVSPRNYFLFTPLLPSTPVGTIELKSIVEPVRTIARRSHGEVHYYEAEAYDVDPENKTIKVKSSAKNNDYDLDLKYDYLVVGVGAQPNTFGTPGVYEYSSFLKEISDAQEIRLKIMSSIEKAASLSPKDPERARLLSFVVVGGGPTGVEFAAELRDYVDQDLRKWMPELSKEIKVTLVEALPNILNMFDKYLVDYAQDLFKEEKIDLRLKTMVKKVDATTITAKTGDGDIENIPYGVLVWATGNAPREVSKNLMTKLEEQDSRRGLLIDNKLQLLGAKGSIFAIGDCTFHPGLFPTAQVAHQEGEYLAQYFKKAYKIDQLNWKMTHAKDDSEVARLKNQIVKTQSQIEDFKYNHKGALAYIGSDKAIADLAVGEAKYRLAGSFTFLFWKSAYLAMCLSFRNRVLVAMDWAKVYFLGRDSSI

[7] = biological target: T5, ATP3 (yeast (endogenous in mitochondria of strain YPH499)) (UniProt P38077)
T5 sequence: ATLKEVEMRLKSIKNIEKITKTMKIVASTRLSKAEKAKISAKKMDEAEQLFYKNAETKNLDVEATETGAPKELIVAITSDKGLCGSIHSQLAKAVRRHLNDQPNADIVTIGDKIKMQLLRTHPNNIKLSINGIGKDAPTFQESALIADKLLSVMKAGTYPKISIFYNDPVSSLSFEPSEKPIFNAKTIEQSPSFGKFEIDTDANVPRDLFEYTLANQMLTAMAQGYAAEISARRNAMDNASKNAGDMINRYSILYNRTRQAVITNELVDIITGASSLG

B1: PHB1 (protein, UniProt P40961 1-287)
chain: MSNSAKLIDVITKVALPIGIIASGIQYSMYDVKGGSRGVIFDRINGVKQQVVGEGTHFLVPWLQKAIIYDVRTKPKSIATNTGTKDLQMVSLTLRVLHRPEVLQLPAIYQNLGLDYDERVLPSIGNEVLKSIVAQFDAAELITQREIISQKIRKELSTRANEFGIKLEDVSITHMTFGPEFTKAVEQKQIAQQDAERAKFLVEKAEQERQASVIRAEGEAESAEFISKALAKVGDGLLLIRRLEASKDIAQTLANSSNVVYLPSQHSGGGNSESSGSPNSLLLNIGR
With B1 the binding [1] was “binds”.

B2: LSC2 (protein, UniProt P53312 31-427)
chain: LSIHEYRSAQLLREYGIGTPEGFPAFTPEEAFEAAKKLNTNKLVIKAQALTGGRGKGHFDTGYKSGVHMIESPQQAEDVAKEMLNHNLITKQTGIAGKPVSAVYIVKRVDTKHEAYLSILMDRQTKKPMIIASSQGGMNIEEVAERTPDAIKKFSIETSKGLSPQMAKDVAKSLGFSPDAQDEAAKAVSNLYKIFMERDATQVEINPLSEIEHDPTHKIMCTDAKFGFDDNASFRQEKIYSWRDLSQEDPDEVKAKKYDLNFVKLKGNIGCLVNGAGLAMATMDVIKLNGGDPANFLDCGGGATPETIKQGFELILSNKNVDAIFVNIFGGIVRCDYVALGLVEAARELEVRVPIVARLQGTKVEEGRDIINKSGVKIYSFDELDPAAKKVVELTQN
B2 was tested, and the binding [2] was “binds”.

B3: SDH2 (protein, UniProt P21801 21-266)
chain: TATTAAATHTPRLKTFKVYRWNPDEPSAKPHLQSYQVDLNDCGPMVLDALLKIKDEQDSTLTFRRSCREGICGSCAMNIGGRNTLACICKIDQNESKQLKIYPLPHMFIVKDLVPDLTNFYQQYKSIQPYLQRSSFPKDGTEVLQSIEDRKKLDGLYECILCACCSTSCPSYWWNQEQYLGPAVLMQAYRWLIDSRDQATKTRKAMLNNSMSLYRCHTIMNCTRTCPKGLNPGLAIAEIKKSLAFA
For B3, the binding [3] was “binds”.

B4: CBP6 (protein, UniProt P07253 1-162)
chain: MSSSQVVRDSAKKLVNLLEKYPKDRIHHLVSFRDVQIARFRRVAGLPNVDDKGKSIKEKKPSLDEIKSIINRTSGPLGLNKEMLTKIQNKMVDEKFTEESINEQIRALSTIMNNKFRNYYDIGDKLYKPAGNPQYYQRLINAVDGKKKESLFTAMRTVLFGK
With B4 the binding [4] was “binds”.

B5: ACO1 (protein, UniProt P19414 17-778)
chain: ATVSNLTRDSKVNQNLLEDHSFINYKQNVETLDIVRKRLNRPFTYAEKILYGHLDDPHGQDIQRGVSYLKLRPDRVACQDATAQMAILQFMSAGLPQVAKPVTVHCDHLIQAQVGGEKDLKRAIDLNKEVYDFLASATAKYNMGFWKPGSGIIHQIVLENYAFPGALIIGTDSHTPNAGGLGQLAIGVGGADAVDVMAGRPWELKAPKILGVKLTGKMNGWTSPKDIILKLAGITTVKGGTGKIVEYFGDGVDTFSATGMGTICNMGAEIGATTSVFPFNKSMIEYLEATGRGKIADFAKLYHKDLLSADKDAEYDEVVEIDLNTLEPYINGPFTPDLATPVSKMKEVAVANNWPLDVRVGLIGSCTNSSYEDMSRSASIVKDAAAHGLKSKTIFTVTPGSEQIRATIERDGQLETFKEFGGIVLANACGPCIGQWDRRDIKKGDKNTIVSSYNRNFTSRNDGNPQTHAFVASPELVTAFAIAGDLRFNPLTDKLKDKDGNEFMLKPPHGDGLPQRGYDAGENTYQAPPADRSTVEVKVSPTSDRLQLLKPFKPWDGKDAKDMPILIKAVGKTTTDHISMAGPWLKYRGHLENISNNYMIGAINAENKKANCVKNVYTGEYKGVPDTARDYRDQGIKWVVIGDENFGEGSSREHAALEPRFLGGFAIITKSFARIHETNLKKQGLLPLNFKNPADYDKINPDDRIDILGLAELAPGKPVTMRVHPKNGKPWDAVLTHTFNDEQIEWFKYGSALNKIKADEKK
In the case of B5, the binding [5] is reported as “binds”.

B6: OM45 (protein, UniProt P16547 1-393)
chain: MSSRIIVGSAALAAAITASIMVREQKAKGQRREGNVSAYYNGQEYGSSAPPQLGKLHNIKQGIKEDALSLKDALLGVSQKAREEAPKVTKRVISPEEDAQTRKQLGQKAKDSSSQSIFNWGFSEAERRKAIAIGEFDTAKKRFEEAVDRNEKELLSTVMREKKAALDRASIEYERYGRARDFNELSDKLDQQERNSNPLKRLLKNNTGDANTEEAAARSVQGWGDTAQEFGREELEEAKRNASSEPSEAQKRLDELKKIKEKGWFGYNKGEQSEQQIAERVARGLEGWGETAAQLSKDEMDDLRWNYENSKKQLDKNVSDAMDSLSKAKEDLKQYGSHWWSGWTSKVDNDKQALKDEAQKKYDEALKKYDEAKNKFKEWNDKGDGKFWSSKKD
With B6 the binding [6] was “binds”.

B7: ATP15 (protein, UniProt P21306 1-62)
chain: MSAWRKAGISYAAYLNVAAQAIRSSLKTELQTASVLNRSQTDAFYTQYKNGTAASEPTPITK
With B7 the binding [7] was “binds”.

B8: CYT1 (protein, UniProt P07143 62-309)
chain: MTAAEHGLHAPAYAWSHNGPFETFDHASIRRGYQVYREVCAACHSLDRVAWRTLVGVSHTNEEVRNMAEEFEYDDEPDEQGNPKKRPGKLSDYIPGPYPNEQAARAANQGALPPDLSLIVKARHGGCDYIFSLLTGYPDEPPAGVALPPGSNYNPYFPGGSIAMARVLFDDMVEYEDGTPATTSQMAKDVTTFLNWCAEPEHDERKRLGLKTVIILSSLYLLSIWVKKFKWAGIKTRKFVFNPPKPRK
B8 was tested, and the binding [6] was “binds”.

B9: SDH3 (protein, UniProt P33421 51-198)
chain: NVASEMNTKAAIAEEQILNKQRAKRPISPHLTIYQPQLTWYLSSLHRISLVLMGLGFYLFTILFGVSGLLGLGLTTEKVSNWYHQKFSKITEWSIKGSFAYLFAIHYGGAIRHLIWDTAKELTLKGVYRTGYALIGFTAVLGTYLLTL
B9 was tested, and the binding [3] was “binds”.
